Reference: patent publication US11999746B2, “Compounds” (GlaxoSmithKline Intellectual Property Development Limited, priority 2014, dated 2024)
Where a name gives a salt, the structure may show the parent alone. Some results were stated once for a whole list of compounds, not compound by compound.

Target: recombinant human PLA2-VIIB (Homo sapiens, UniProt Q99487)
Test: (2b) Alternative PLA2 VIIB assay (2-thio-PAF substrate)
Assay type: biochemical
Details: Examples 266-412 were tested here

Selectivity between human recombinant Lp-PLA2 and PLA2 VIIB, at least 100 fold:
CS(=O)(=O)N1CCN2c3cc(OCc4ccc(F)c(F)c4)nc(=O)n3CC2C1 (stereo not drawn) [Example E313, 7-((3,4-Difluorobenzyl)oxy)-2-(methylsulfonyl)-3,4,11,11a-tetrahydro-1H-pyrazino[1′,2′:3,4]imidazo[1,2-c]pyrimidin-9(2H)-one]
CC(=O)N1CCN2c3cc(OCc4ccc(F)c(F)c4)nc(=O)n3CC2C1 (stereo not drawn) [Example E315, 2-Acetyl-7-((3,4-difluorobenzyl)oxy)-3,4,11,11a-tetrahydro-1H-pyrazino[1′,2′:3,4]imidazo[1,2-c]pyrimidin-9(2H)-one]
N#Cc1cc(COc2cc3n(c(=O)n2)CC2CNCCN32)ccc1OC1CCCC1 (stereo not drawn) [Example E317, 2-(Cyclopentyloxy)-5-(((9-oxo-2,3,4,9,11,11a-hexahydro-1H-pyrazino[1,2′:3,4]imidazo[1,2-c]pyrimidin-7-yl)oxy)methyl)benzonitrile]
CN1CCN2c3cc(OCc4ccc(F)c(F)c4)nc(=O)n3CC2C1 (stereo not drawn) [Example E320, 7-((3,4-Difluorobenzyl)oxy)-2-methyl-3,4,11,11a-tetrahydro-1H-pyrazino[1,2′:3,4]imidazo[1,2-c]pyrimidin-9(2H)-one]
Cc1ccc(Oc2c(F)cc(COc3cc4n(c(=O)n3)CC3CN(C)CCN43)cc2F)cn1 (stereo not drawn) [Example E321, 7-((3,5-Difluoro-4-((6-methylpyridin-3-yl)oxy)benzyl)oxy)-2-methyl-3,4,11,11a-tetrahydro-1Hpyrazino[1′,2′:3,4]imidazo[1,2-c]pyrimidin-9(2H)-one]
N#Cc1cc(COc2cc3n(c(=O)n2)CC2CN(CC(F)(F)F)CCN32)ccc1F (stereo not drawn) [Example E322, 2-Fluoro-5-(((9-oxo-2-(2,2,2-trifluoroethyl)-2,3,4,9,11,11a-hexahydro-1H-pyrazino[1′,2′:3,4]imidazo[1,2-c]pyrimidin-7-yl)oxy)methyl)benzonitrile]
N#Cc1cc(COc2cc3n(c(=O)n2)CC2CN(C(=O)C(F)(F)F)CCN32)ccc1F (stereo not drawn) [Example E323, 2-Fluoro-5-(((9-oxo-2-(2,2,2-trifluoroacetyl)-2,3,4,9,11,11a-hexahydro-1H-pyrazino[1′,2′:3,4]imidazo[1,2-c]pyrimidin-7-yl)oxy)methyl)benzonitrile]
N#Cc1cc(COc2cc3n(c(=O)n2)CC2CN(CC(=O)O)CCN32)ccc1F (stereo not drawn) [Example E324, 2-(7-((3-Cyano-4-fluorobenzyl)oxy)-9-oxo-3,4,11,11a-tetrahydro-1H-pyrazino[1,2′:3,4]imidazo[1,2-c]pyrimidin-2(9H)-yl)acetic acid, trifluoroacetic acid Salt]
N#Cc1cc(COc2cc3n(c(=O)n2)CC2CN(CCC(=O)O)CCN32)ccc1F (stereo not drawn) [Example E325, 3-(7-((3-Cyano-4-fluorobenzyl)oxy)-9-oxo-3,4,11,11a-tetrahydro-1H-pyrazino[1,2′:3,4]imidazo[1,2-c]pyrimidin-2(9H)-yl)propanoic acid]
O=C(O)C(C1CC1)N1CCN2c3cc(OCc4ccc(F)c(F)c4)nc(=O)n3CC2C1 (stereo not drawn) [Example E328, 2-Cyclopropyl-2-(7-((3,4-difluorobenzyl)oxy)-9-oxo-3,4,11,11a-tetrahydro-1H-pyrazino[1′,2′:3,4]imidazo[1,2-c]pyrimidin-2(9H)-yl)acetic acid, trifluoroacetic acid Salt]
N#Cc1cc(COc2cc3n(c(=O)n2)CC2COCCN32)ccc1F (stereo not drawn) [Example E329, 2-Fluoro-5-(((9-oxo-1,3,4,9,11,11a-hexahydropyrimido[6′,1′:2,3]imidazo[5,1-c][1,4]oxazin-7-yl)oxy)methyl)benzonitrile]
O=C(C1CC1)N1CCN2c3cc(OCc4ccc(F)c(F)c4)nc(=O)n3CC2C1 (stereo not drawn) [Example E330, 2-(Cyclopropanecarbonyl)-7-((3,4-difluorobenzyl)oxy)-3,4,11,11a-tetrahydro-1H-pyrazino[1′,2′:3,4]imidazo[1,2-c]pyrimidin-9(2H)-one]
O=c1nc(OCc2ccc(F)c(F)c2)cc2n1CC1CN(S(=O)(=O)C3CC3)CCN21 (stereo not drawn) [Example E331, 2-(Cyclopropylsulfonyl)-7-((3,4-difluorobenzyl)oxy)-3,4,11,11a-tetrahydro-1H-pyrazino[1′,2′:3,4]imidazo[1,2-c]pyrimidin-9(2H)-one]
CC(C)(C)C(=O)N1CCN2c3cc(OCc4ccc(F)c(F)c4)nc(=O)n3CC2C1 (stereo not drawn) [Example E332, 7-((3,4-Difluorobenzyl)oxy)-2-pivaloyl-3,4,11,11a-tetrahydro-1H-pyrazino[1′,2′:3,4]imidazo[1,2-c]pyrimidin-9(2H)-one]
Cl.NC1(C(=O)N2CCN3c4cc(OCc5ccc(F)c(F)c5)nc(=O)n4CC3C2)CC1 (stereo not drawn) [Example E333, 2-(1-Aminocyclopropanecarbonyl)-7-((3,4-difluorobenzyl)oxy)-3,4,11,11a-tetrahydro-1H-pyrazino[1′,2′:3,4]imidazo[1,2-c]pyrimidin-9(2H)-one hydrochloride]
CC(C)(N)CC(=O)N1CCN2c3cc(OCc4ccc(F)c(F)c4)nc(=O)n3CC2C1 (stereo not drawn) [Example E334, 2-(3-Amino-3-methylbutanoyl)-7-((3,4-difluorobenzyl)oxy)-3,4,11,11a-tetrahydro-1H-pyrazino[1′,2′:3,4]imidazo[1,2-c]pyrimidin-9(2H)-one]
CC(C)(N)C(=O)N1CCN2c3cc(OCc4ccc(F)c(F)c4)nc(=O)n3CC2C1 (stereo not drawn) [Example E335, 2-(2-Amino-2-methylpropanoyl)-7-((3,4-difluorobenzyl)oxy)-3,4,11,11a-tetrahydro-1H-pyrazino[1,2′:3,4]imidazo[1,2-c]pyrimidin-9(2H)-one]
O=c1nc(OCc2ccc(F)c(F)c2)cc2n1CC1COCCN21 (stereo not drawn) [Example E336, 7-((3,4-Difluorobenzyl)oxy)-3,4,11,11a-tetrahydropyrimido[6′,1′:2,3]imidazo[5,1-c][1,4] oxazin-9(1H)-one]
CN(C)CCC(=O)N1CCN2c3cc(OCc4ccc(F)c(F)c4)nc(=O)n3CC2C1 (stereo not drawn) [Example E337, 7-((3,4-Difluorobenzyl)oxy)-2-(3-(dimethylamino)propanoyl)-3,4,11,11a-tetrahydro-1H-pyrazino[1,2′:3,4]imidazo[1,2-c]pyrimidin-9(2H)-one]
O=c1nc(OCc2ccc(F)c(F)c2)cc2n1CC1CN(CC(F)(F)F)CCN21 (stereo not drawn) [Example E338, 7-((3,4-Difluorobenzyl)oxy)-2-(2,2,2-trifluoroethyl)-3,4,11,11a-tetrahydro-1H pyrazino[1′,2′:3,4]imidazo[1,2-c]pyrimidin-9(2H)-one trifluoroacetate]
O=C([C@@H]1CCN1)N1CCN2c3cc(OCc4ccc(F)c(F)c4)nc(=O)n3CC2C1 (stereo partly drawn) [Example E339, 2-((S)-azetidine-2-carbonyl)-7-((3,4-difluorobenzyl)oxy)-3,4,11,11a-tetrahydro-1H-pyrazino[1′,2′:3,4]imidazo[1,2-c]pyrimidin-9(2H)-one]
O=C([C@@H]1CCCN1)N1CCN2c3cc(OCc4ccc(F)c(F)c4)nc(=O)n3CC2C1 (stereo partly drawn) [Example E340, 7-((3,4-Difluorobenzyl)oxy)-2-((S)-pyrrolidine-2-carbonyl)-3,4,11,11a-tetrahydro-1H-pyrazino[1,2′:3,4]imidazo[1,2-c]pyrimidin-9(2H)-one]
O=C([C@@H]1C[C@H](F)CN1)N1CCN2c3cc(OCc4ccc(F)c(F)c4)nc(=O)n3CC2C1 (stereo partly drawn) [Example E341, 7-((3,4-Difluorobenzyl)oxy)-2-((2S,4S)-4-fluoropyrrolidin-2-carbonyl)-3,4,11,11a-tetrahydro-1H-pyrazino[1′,2′:3,4]imidazo[1,2-c]pyrimidin-9(2H)-one]
O=C([C@@H]1CC(F)(F)CN1)N1CCN2c3cc(OCc4ccc(F)c(F)c4)nc(=O)n3CC2C1 (stereo partly drawn) [Example E342, 7-((3,4-Difluorobenzyl)oxy)-2-((S)-4,4-difluoropyrrolidin-2-carbonyl)-3,4,11,11a-tetrahydro-1H-pyrazino[1,2′:3,4]imidazo[1,2-c]pyrimidin-9(2H)-one]
O=C([C@H]1CCCN1)N1CCN2c3cc(OCc4ccc(F)c(F)c4)nc(=O)n3CC2C1 (stereo partly drawn) [Example E343, 7-((3,4-Difluorobenzyl)oxy)-2-((R)-pyrrolidine-2-carbonyl)-3,4,11,11a-tetrahydro-1H-pyrazino[1,2′:3,4]imidazo[1,2-c]pyrimidin-9(2H)-one]
NC1(C(=O)N2CCN3c4cc(OCc5ccc(F)c(F)c5)nc(=O)n4CC3C2)CCC1 (stereo not drawn) [Example E344, 2-(1-Aminocyclobutanecarbonyl)-7-((3,4-difluorobenzyl)oxy)-3,4,11,11a-tetrahydro-1H-pyrazino[1,2′:3,4]imidazo[1,2-c]pyrimidin-9(2H)-one]
NC1(C(=O)N2CCN3c4cc(OCc5ccc(F)c(F)c5)nc(=O)n4CC3C2)CCOCC1 (stereo not drawn) [Example E345, 2-(4-Aminotetrahydro-2H-pyran-4-carbonyl)-7-((3,4-difluorobenzyl)oxy)-3,4,11,11a-tetrahydro-1H-pyrazino[1,2′:3,4]imidazo[1,2-c]pyrimidin-9(2H)-one]
